These are yes or no findings as the source states them, for the method shown. In cells and extracts the contact can be indirect. Some entries that bind do so weakly or less than the wild type.

By UniProt entry, the sequences of proteins in these tests, tags left out.
UniProt Q3TKT4: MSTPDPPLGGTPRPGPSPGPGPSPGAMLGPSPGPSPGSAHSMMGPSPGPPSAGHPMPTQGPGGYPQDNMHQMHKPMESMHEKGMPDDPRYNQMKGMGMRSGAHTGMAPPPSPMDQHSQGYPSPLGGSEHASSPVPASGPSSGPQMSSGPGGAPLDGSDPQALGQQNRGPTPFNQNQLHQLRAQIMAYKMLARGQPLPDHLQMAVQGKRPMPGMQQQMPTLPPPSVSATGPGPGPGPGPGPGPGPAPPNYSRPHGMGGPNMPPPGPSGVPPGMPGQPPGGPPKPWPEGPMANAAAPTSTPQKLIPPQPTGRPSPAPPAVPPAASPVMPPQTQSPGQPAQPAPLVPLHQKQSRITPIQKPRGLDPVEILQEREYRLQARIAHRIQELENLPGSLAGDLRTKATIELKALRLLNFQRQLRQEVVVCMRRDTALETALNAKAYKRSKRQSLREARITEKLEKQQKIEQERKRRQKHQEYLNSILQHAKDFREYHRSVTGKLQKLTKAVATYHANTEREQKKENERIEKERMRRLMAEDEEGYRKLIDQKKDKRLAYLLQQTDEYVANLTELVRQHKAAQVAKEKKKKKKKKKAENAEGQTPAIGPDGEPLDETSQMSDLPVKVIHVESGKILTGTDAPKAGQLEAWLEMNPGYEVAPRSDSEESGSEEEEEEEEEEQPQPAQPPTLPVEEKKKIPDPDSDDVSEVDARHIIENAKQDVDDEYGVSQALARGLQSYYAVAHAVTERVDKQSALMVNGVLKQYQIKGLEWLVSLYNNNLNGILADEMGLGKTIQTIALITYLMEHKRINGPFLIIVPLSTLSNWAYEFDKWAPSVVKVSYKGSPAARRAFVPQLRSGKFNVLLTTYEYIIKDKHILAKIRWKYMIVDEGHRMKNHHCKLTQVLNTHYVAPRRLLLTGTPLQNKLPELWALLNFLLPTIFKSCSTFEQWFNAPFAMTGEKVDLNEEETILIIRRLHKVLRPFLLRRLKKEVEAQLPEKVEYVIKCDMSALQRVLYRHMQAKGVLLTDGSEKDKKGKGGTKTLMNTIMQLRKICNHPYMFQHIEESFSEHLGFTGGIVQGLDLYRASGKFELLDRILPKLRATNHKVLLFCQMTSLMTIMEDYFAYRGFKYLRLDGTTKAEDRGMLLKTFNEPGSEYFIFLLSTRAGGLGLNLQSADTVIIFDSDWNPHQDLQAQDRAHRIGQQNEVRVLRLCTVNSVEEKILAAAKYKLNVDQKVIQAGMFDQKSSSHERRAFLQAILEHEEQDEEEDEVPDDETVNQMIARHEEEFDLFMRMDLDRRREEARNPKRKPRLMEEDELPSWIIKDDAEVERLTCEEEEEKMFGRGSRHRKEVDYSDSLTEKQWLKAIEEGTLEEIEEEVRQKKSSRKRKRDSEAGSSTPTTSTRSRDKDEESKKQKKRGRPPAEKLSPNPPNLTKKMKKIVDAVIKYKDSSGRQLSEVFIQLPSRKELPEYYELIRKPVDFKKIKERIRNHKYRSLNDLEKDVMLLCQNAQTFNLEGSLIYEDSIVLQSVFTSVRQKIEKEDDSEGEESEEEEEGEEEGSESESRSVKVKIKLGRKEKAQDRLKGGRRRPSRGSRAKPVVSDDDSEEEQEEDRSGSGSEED
UniProt Q61502: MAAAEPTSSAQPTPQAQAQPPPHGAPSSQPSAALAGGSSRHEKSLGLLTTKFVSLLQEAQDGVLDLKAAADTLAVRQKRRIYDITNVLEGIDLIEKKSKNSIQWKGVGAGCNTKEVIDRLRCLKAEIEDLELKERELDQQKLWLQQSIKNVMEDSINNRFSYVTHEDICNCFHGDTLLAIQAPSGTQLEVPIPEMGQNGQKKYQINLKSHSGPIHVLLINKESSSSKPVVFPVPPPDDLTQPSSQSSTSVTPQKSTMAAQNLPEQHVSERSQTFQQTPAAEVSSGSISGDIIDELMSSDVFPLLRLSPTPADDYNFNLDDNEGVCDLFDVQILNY

The experiment addresses Brahma-related gene 1 (BRG1) (mouse (endogenous in primary murine hepatocytes)) (UniProt Q3TKT4). Briefly: co-IP; immunoprecipitation with anti-BRG1 or IgG from primary murine hepatocyte lysates.

With E2F5 (from UniProt Q61502 1-335), the binding result is “binds”.

B1: TFDP1 (protein, UniProt Q08639 1-410)
chain: MAKDASLIEANGELKVFIDQNLSPGKGVVSLVAVHPSTVNTLGKQLLPKTFGQSNVNITQQVVIGTPQRPAASNTIVVGSPHTPNTHFVSQNQTSDSSPWSAGKRNRKGEKNGKGLRHFSMKVCEKVQRKGTTSYNEVADELVAEFSAADNHILPNESAYDQKNIRRRVYDALNVLMAMNIISKEKKEIKWIGLPTNSAQECQNLEVERQRRLERIKQKQSQLQELILQQIAFKNLVQRNRQAEQQARRPPPPNSVIHLPFIIVNTSRKTVIDCSISNDKFEYLFNFDNTFEIHDDIEVLKRMGMACGLESGNCSAEDLKVARSLVPKALEPYVTEMAQGSIGGVFVTTTGSTSNGTRLSASDLSNGADGMLATSSNGSQYSGSRVETPVSYVGEDDDDDDDFNENDEED
Regarding B1, the binding entry is given as “binds”.

Source of the values: article PMC8569672.
